Source: PMC7819943, “Rice protein-binding microarrays: a tool to detect cis-acting elements near promoter regions in rice”
The list shows a part of the results.

These sequences were tested against T1, OsSMF1 (Oryza sativa, UniProt Q6ZLB0 1-436) (assay: protein-binding microarray (RPBM); PBS, 2% BSA, 51.3 ng/ul salmon testes DNA, 50 uM zinc acetate, 200 nM TF, 25 C, 1 h; high values mean tight binding). Details: protein: recombinant; tags: N-terminal polyhistidine and DsRed monomer fusion (pET32a); chain copies: 2; label: CyDye5-dUTP incorporated in the synthesized complementary strand; 3' TTTTT single-stranded linker to array surface; dsDNA, one strand shown.
T1 sequence: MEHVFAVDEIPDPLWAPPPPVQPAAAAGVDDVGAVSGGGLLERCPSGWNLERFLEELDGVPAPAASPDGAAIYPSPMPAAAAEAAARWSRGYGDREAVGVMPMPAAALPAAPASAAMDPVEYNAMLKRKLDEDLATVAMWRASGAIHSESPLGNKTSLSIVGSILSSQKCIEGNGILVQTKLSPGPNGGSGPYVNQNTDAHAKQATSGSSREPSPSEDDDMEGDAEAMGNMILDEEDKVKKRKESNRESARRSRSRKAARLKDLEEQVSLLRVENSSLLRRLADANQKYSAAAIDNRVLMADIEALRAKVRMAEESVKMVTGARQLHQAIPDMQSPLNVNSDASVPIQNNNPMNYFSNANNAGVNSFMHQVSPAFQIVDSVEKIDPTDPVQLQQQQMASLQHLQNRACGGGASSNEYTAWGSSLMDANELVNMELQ
Summary of the method: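 An Axon 4000B scanner gave the binding signal as per-feature fluorescence intensity in arbitrary units. This followed washing of a custom Agilent array that had been incubated for 1 h at 25 °C with 200 nM protein in PBS, 2% BSA, salmon testes DNA and 50 µM zinc acetate. The proteins were transcription factors fused at the N-terminus to polyhistidine and DsRed, expressed in E. coli BL21-CodonPlus and purified on Ni–NTA.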

Sequence | binding signal
AGCTGTTCCCACTAAAGTATCCACCGAACGACGAGGTCCTCGGAGTCACCTAGTGCAG | 3240 fluorescence intensity (a.u.)
TGCAGGTCTTGGAGGGATTGGTGAGGCAGCTGACACGCGGCGGAGTCACCTAGTGCAG | 4080 fluorescence intensity (a.u.)
ACTAACTGTGATGGTGAGAACTAATACTTCCTCCGTTTTACGGAGTCACCTAGTGCAG | 3260 fluorescence intensity (a.u.)
AAGAGTCCAGAAGAATCCACCTCACCACCACGCGCACCGGCGGAGTCACCTAGTGCAG | 8080 fluorescence intensity (a.u.)
GGCGCTGTCATCCAGCCGCCCTCCCGCCGCGTAGGCGTCGCGGAGTCACCTAGTGCAG | 3940 fluorescence intensity (a.u.)
CGAGCCAATCAAGTTGTTTTAAGGAAAGCAAACGTACGCACGGAGTCACCTAGTGCAG | 3270 fluorescence intensity (a.u.)
AATTACTCCTCGTCATCTCGTCTCGTCTCCGCCACCGTGCCGGAGTCACCTAGTGCAG | 4480 fluorescence intensity (a.u.)
TCTTCAGGATCTCCGGCGTGACGACGAACATCTCCTCCCCCGGAGTCACCTAGTGCAG | 5190 fluorescence intensity (a.u.)
TGTGGGTCAGGTTGTGATATCTGTGCCCAGAAACAGTTGTCGGAGTCACCTAGTGCAG | 10700 fluorescence intensity (a.u.)
AGAAGCACTTACTGGGCCATGGCCCACAACATCCGGTCCACGGAGTCACCTAGTGCAG | 3220 fluorescence intensity (a.u.)
CATGTGGAAAAGGGATTATGGTACAACCAAACTGTGATGACGGAGTCACCTAGTGCAG | 3290 fluorescence intensity (a.u.)
CGTTCTTATCCACTCATTCCACTGTAATGGGATTGTTTGTCGGAGTCACCTAGTGCAG | 3970 fluorescence intensity (a.u.)
GCCGCCTGCGCGCCGCGGACGTGGCACCGCCGCGCCACCGCGGAGTCACCTAGTGCAG | 6800 fluorescence intensity (a.u.)
GTGTGCTCTTGCATACATACTTGGGCTTATCTAGCTGCGTCGGAGTCACCTAGTGCAG | 5510 fluorescence intensity (a.u.)
TTCCTCCCCACGCCGCGCTCTCCTCCCCTCTTAAACCACTCGGAGTCACCTAGTGCAG | 3430 fluorescence intensity (a.u.)
TCGTCTGGAGAGATGCCTTCATATATTATGATGTCATTGGCGGAGTCACCTAGTGCAG | 7520 fluorescence intensity (a.u.)
TTAATACGTATGAATATATAAAGTTTATATATGCATGTACCGGAGTCACCTAGTGCAG | 63000 fluorescence intensity (a.u.)
TATCAGGACGGGAGGACAATTGACACGTACATCCTCCTACCGGAGTCACCTAGTGCAG | 6720 fluorescence intensity (a.u.)
CGCGCTGATTGGGCGGCGGATGAGGCGCGTGTGAGCCACGCGGAGTCACCTAGTGCAG | 6670 fluorescence intensity (a.u.)
GCTGCCGGCGCTGGAGGCCGCCGTGCGCCCGATCCGTGCGCGGAGTCACCTAGTGCAG | 3290 fluorescence intensity (a.u.)
TCTCCCCTCTCCACGCCACAGATCTCTCCCCTCTCCATCTCGGAGTCACCTAGTGCAG | 3670 fluorescence intensity (a.u.)

Sequence | binding signal
AGTTGCAAACAGACCGAGGTGGCCACATCGGCTCTTTACTCGGAGTCACCTAGTGCAG | 6160 fluorescence intensity (a.u.)
CCGGCCCATTTTGCTTCAAATGGAGGCCTATCTGTACTGCCGGAGTCACCTAGTGCAG | 30700 fluorescence intensity (a.u.)
TCCAAATTCAGCCAAACTTCTCTCTCTTCCTCCTCTTACACGGAGTCACCTAGTGCAG | 33800 fluorescence intensity (a.u.)
GTTCCGCCTCGCCGTGGGGCCGCGCGGTTTCGTCACGTGGCGGAGTCACCTAGTGCAG | 4460 fluorescence intensity (a.u.)
GATTGCAGCCGCCGCCTGCGTCGGTCCAGTCACCATTGGCCGGAGTCACCTAGTGCAG | 6870 fluorescence intensity (a.u.)
ATATTAAATTCAACCCTACTTTTAGTATCTATTATACATACGGAGTCACCTAGTGCAG | 3480 fluorescence intensity (a.u.)
GACGACGCCCCTGTCCGCCGACTACGTCACGAGAGAGAAGCGGAGTCACCTAGTGCAG | 3170 fluorescence intensity (a.u.)
CCCATCCACGCGTAGCTGTCGTGCCACGTCTCCCCGTGGACGGAGTCACCTAGTGCAG | 11300 fluorescence intensity (a.u.)
AATACACAAATCAATCTGTGGCTTACTCACTAATTTTATCCGGAGTCACCTAGTGCAG | 3210 fluorescence intensity (a.u.)
AGCATCACTGTCATCCGTTTGCAGTGCATCCTCATCCTGACGGAGTCACCTAGTGCAG | 3460 fluorescence intensity (a.u.)
GCTCGCCTTTTATCGCAGCCAAAGCCATGAAATTTCCCCACGGAGTCACCTAGTGCAG | 27500 fluorescence intensity (a.u.)
AGTCGTTTTCTGCGTAAGCATTTTCCTCGCTGTACTCTTTCGGAGTCACCTAGTGCAG | 3160 fluorescence intensity (a.u.)
GCCGATGAGGTGGACAACGATAACACCCAACACTTACACTCGGAGTCACCTAGTGCAG | 4170 fluorescence intensity (a.u.)
TCGCTTTGTATTCAGCAACCAAGACCTCATTATCACCGAGCGGAGTCACCTAGTGCAG | 3630 fluorescence intensity (a.u.)
AAGAGAAATTCTAGTTGTGCACATATTTGAGCTTGGACACCGGAGTCACCTAGTGCAG | 25500 fluorescence intensity (a.u.)
TATGTAAGCAATGTCATATCATTATCTCCACATTATTTTCCGGAGTCACCTAGTGCAG | 3500 fluorescence intensity (a.u.)
GTGGTGAGGCACATCATCTCCTCCTCCGTCATCGCCTCCGCGGAGTCACCTAGTGCAG | 4650 fluorescence intensity (a.u.)
CACCAAACCCCAACCCACCTCCAGGTCATCCACCCACATCCGGAGTCACCTAGTGCAG | 3900 fluorescence intensity (a.u.)
CATATATGGACAGGCAACGGCATGTCGTGTTCGTACAAATCGGAGTCACCTAGTGCAG | 3190 fluorescence intensity (a.u.)
CTCTCTCTCTCTCTCTCTCTAGCTTCCACCTCCTGATCCACGGAGTCACCTAGTGCAG | 3370 fluorescence intensity (a.u.)
GCACCGGATGTCGTCACATGGACTAGCCTTGTCTCTGGCTCGGAGTCACCTAGTGCAG | 3910 fluorescence intensity (a.u.)

Taken from above.
For binding signal, GTTCCGCCTCGCCGTGGGGCCGCGCGGTTTCGTCACGTGGCGGAGTCACCTAGTGCAG is listed with 4460 fluorescence intensity (a.u.)
For binding signal, AGCTGTTCCCACTAAAGTATCCACCGAACGACGAGGTCCTCGGAGTCACCTAGTGCAG is listed with 3240 fluorescence intensity (a.u.)
